System: anti-spadin antibodies (AB1 polyclonal antibody)
Assay: AlphaLISA competition assay: biotinylated spadin / anti-spadin antibody displaced by peptides
Format: binding, rabbit
Details: range of values of detection in the AlphaLISA assay

Row | Substance | Detectable quantity | Detectable quantity (ng/mL)
1 | APLPRWSGPIGVSWGL [12-27 PE, peptide fragment 12 to 27 of the propeptide] | 1.5 to 400 ng/mL | 
2 | APLPRWSGPIGVSWGLR [spadin] | 1.5 to 400 ng/mL | 
3 | GVSWGLR [22-28 PE, peptide fragment 22 to 28 of the propeptide] |  | Not detectable
4 | LPRWSGPIGVSW [14-25 PE, peptide fragment 14 to 25 of the propeptide] | 0.8 to 300 ng/mL | 
5 | QDRLDAPPPPAAPLPR [1-16 PE, peptide fragment 1 to 16 of the propeptide] |  | not detectable
